# A negative result means that nothing was seen under these conditions. The exact form of at least one protein or probe is not confirmed.
# Biological target: HaWRI1_DBD (6-His-TRX-WRI1_DBD) (Helianthus annuus (CAS-6 line)) (UniProt X2BZR1)
# Experiment: EMSA
# Conditions: 20 mM Tris-HCl pH 8.0, 250 mM NaCl, 2 mM MgCl2, 1% glycerol, 1 mM DTT, 1 mg/mL BSA, 30 min room temperature, gels at 4 °C; DIG EMSA plus 0.05 µg/µL polydIdC; recombinant protein; residues 51-229; protein details: N-terminal 6xHis-thioredoxin fusion; label: none (agarose), digoxigenin (PAGE); probe letters rebuilt from the primers and the genome
row,Sequence,binding result
1,CACAATACAATATGTCGTTCCCGTCACATCGCGGTAATAAAAAAAATTAAACCACTACATATATAACTAAGTACTAGTTCCCCCAATTTCAGCACGAAGTACTTCATGGCAAAAACGTGAATAACTGCAACTCCAGTGTCAATCTCCTGCAAGCAACATCTGCCTCGTGCATATCGACACTCCACACTATACATAACCCACTCCGTACCCTCACCAAAACCTTCACACCTAACCTTTTCCGGCGACTCCACGGCGGCGATACACCGATCACTATGCTCTCCAGAGGTGTTCCGACCGCCACCGCCACCGCCTACAATGACGTA (double strand) [pHaFATA1-f1],binds

# Same assay, conditions: 20 mM Tris-HCl pH 8.0, 250 mM NaCl, 2 mM MgCl2, 1% glycerol, 1 mM DTT, 1 mg/mL BSA, 30 min room temperature, gels at 4 °C; DIG EMSA plus 0.05 µg/µL polydIdC; recombinant protein; residues 51-229; protein details: N-terminal 6xHis-thioredoxin fusion; probe letters rebuilt from the primers and the genome
row,Sequence,binding result
1,AAACCCCCTAAAACCATATCTACCAATTGGTTAACTTACATGTGATTGTAAATATCTTAGAAACAAACTAGACGTTGTTCAACTCCCTCAACCACTCTGAAACTCAAAACACCTTCAAATACACACACTCACAACTTCGTTAACTCCGCTGTCATCTCCCCCGGCTAAC (double strand) [LPD-16g (-127)],binds
2,ACCATAGACCATGGGTATTGAAGTTGGGTTTTCATCCGGGTTCGGACTCTTGGATAAAATATAGATGATCCGAGTCCGATGTGTAGTTAAAATTGAGTGAATTGAGTTGGGTGAACTAACTTACATTACATTACAGCCCACCCACAGCCAACATTTCATACGTTTATTTCCAGATTTAGCCTCCTCGTTCACTCCGCCCCTCTTCTTCTTCACCCCCCCTATAAATATATTATTTATTCCATCTCACACACACAAACACACACACACATTCCTGCAACCAACA (double strand) [αPDH-13g (-101)],binds
3,AGAAAAACATGTTAGGCTGGAGAGGGTGTGGGGGCTCCATCCTCGCCATGTCACCATGTATAGCACCCATATGGGCTCCATTATCACACCCTCCAAGTGAAGAGGGGGACGCCATTGATGGGGCTCCATCATAGTAACACCCGGTAACGTCATGGCTTGGAGTTTGGACCAATCAAATGTTTTTTTTTTTATTTTGTTTAATATGGGCTCCATCCACACCATGTAAATTAAAAGGGGGCTCCATAGGTGAGGTGGATCCTAGGT (double strand) [βPDH-17g (-276)],no binding
4,AGAGTCGAATGCATCCGTCTCGAGAATGTCTTGGGACGGACTCTATTAAGGAGGAAGAAGAGATGATGTTAATTACATTTCTTATTGTTAGAGACGCAATTACTAAATAAATATGACGCGTCTACAATTTCTATTAATAAAGTAGCATAGGCAACTTACGGGAGTTAACATTCAAACATCCCTTTCTTTATCTCTCTCTATATATACACAGATACATATAGAGAGAGATAGAGTGTACAGGGATGTGGAAATAAGATATAAGGGGAGGCGGGGCGGTCCGTGATGGATCCCCCGTCACACGTTATATAATCAGGCACACCGTCGCCGCCGTATATATAACGCGTTATTTAATCAACGCGTTAGAATCATCACG (double strand) [pHaSAD6-f4],no binding
5,AGTGGGTTTTTGGGTGTTTATGTTCGATAATTCTTATGCGATTTGAGGCGGAGGGACTTGAGCCAGCTATGATCCGTTTGGCAGGTGAAGATTGGGTGAGCTTATGAGCCATGGGTGGGTTCGAGCTTGTTTTGTTTTCACACCAGTCAGGGTTAGAAATGTGTGGTAAC (double strand) [αCT-15g (-995)],no binding
6,CAATCGAAAAGACTATAAAGATCTGAAATTGAACACTTTGGGAGATGGGATTTTATGATCGACCAGTTTGAGACCAAGAGAGAGAGAGAGAGAGAGAGATTTATTAGGGGGAAATGAGGGGTAGCATAGAGAAGATCGTCAGTGGGTTTTTGGGTGTTTATGTTCGATAATTCTTATGCGATTTGAGGCGGAGGGACTTGAGCCAGCTATGATCCGTTTGGCAGGTGAAGATTGGGTGAGCTTATGAG (double strand) [αCT-15g (-870)],binds
7,CACACGAGGATTGATTGGGCGTAAGAGGGACTCACCTCTTAGGTGAGCACCCCTTACACCCTAAGAAGGTTCATCGTGAACACCATCATCGTCCCTCCCTCCCACTGTCCTCCTCGTTGATATCGCCTAACATTTAACACTACTCTACTCTATATCTTCG (double strand) [BCCP-16g (-136)],binds
8,CGATGAGAGTGTGTTAGGTATTTATAGGTAAAATATTAGGTTCATTTTGACATCGAGAAATCCGCCGGTCAGGGGTTACTGATACTACTATTAAACTATGGGCGATAATTTATTTTTTCACCCCACTTCGCTTGTTGTGTGCTCGTTTGGCGTTCACTGGGCTGGCACAGGGCCCACACACTCGTCTCCGTCCACACCACGTTCGCCAAGCCACTCATGCTCTTAC (double strand) [ACP2-14g (-124)],binds
9,CGGGTAAAAGAACTGGTTACTATGCTAAGTAAAAACTTGAAATTTTTAAAATTTATCATTATTATTAAAAATATGTTTGAAATAACATTTCAAACAAGTTTTGTAAATGAAATATAAAATTAGATAGGAAACAAAACATGTGTAGTTGTATACTACACCCACACACCACCTGTTTACCTGTGACTGTCAAAACTATCTTTCGTCACTCTCTTTGCAAACTCTCCTCGGTCATATCGCCCCCTTCATATTTAGTTTAGTTTAGTTTCTCATCTCTTTCTCTTTCTCACCGCCCCCAAATCTATACAATTTCTTTCTCCTCCCC (double strand) [BCCP-9g (-123)],binds
10,CTGCAGATTTCAATCTCAAAGACTATAAAGATCCGAACTTTATCACTTTTGGGAGAAGGGGTTCTGTTATCGCCCCCTTAGGACAAAGAAAGACGCTAATTTTAAGAGATTTATTGGAAAGAAATGAGGAGAGAGAGGGGTAACATAGAGAAGATCGTCACTGGTTTTTGGGTTTTTATGTTCGATAATTCTTATGCGGTTTGAGCCAGCTATGATCCGCTAGGCCGTTGAAGATTAGGTGAACCAATGTGAGCAGTAGG (double strand) [αCT-10g (-915)],binds
11,GAGAATCAAAGCTTCAACCGCTAATAATATCGGTTTATGCGATGAAACTGAATCCAGATCTCGATCTACAACAATAAAAACCTAAAATCACATTCCGATTCAGATTTTCTCTGTACTGATACGTAACAACAATTACAGCGAGAATCAAAGCTTTAAGATTTTAACCGCTAAGTCGCTAACAGAATCGATTTATTCGAAGAAACTGAATCCAGATCTAGATCGAGCTTAGGCGACAGCGACGGGATCTGGTGGATTAGGTTGTGTGG (double strand) [BCCP-16g (-1242/-1203/-1048)],no binding
12,GGCAATGTATGTGTTTCCCGTCGCGTCGCGCGCGCACCTATCGGTTATTAACCAAAACCGGTTACCGGTGAGCAATAACTAAATCGTTAACCTAAACCAAACCGAAAACAGACGAAACCGAACCGAAATCAACCAAAAATTTACTTAACTGAAAAACGAAATAACCAAAAACCGGTTATCAATTTTTTTGTACTCTCGTTTAACCAAAATTAGCTGAATCGAACTGAATTATTCATATTTTCATATAATTCAAGCTTTTATACCTCCATTTTATATATTTCATATTTTATATCTCAATTTCATAGATTTATACTTTCGTTTAATGTATTTATACCTCAATTTCATATAATTTAAGCAAGGGTGGGAGTTGGCTGCTTTTAACTGA (double strand) [pHaFATA1-f3],no binding

# Same assay, conditions: polydIdC; 20 mM Tris-HCl pH 8.0, 250 mM NaCl, 2 mM MgCl2, 1% glycerol, 1 mM DTT, 1 mg/mL BSA, 30 min room temperature, gels at 4 °C; DIG EMSA plus 0.05 µg/µL polydIdC; recombinant protein; residues 51-229; protein details: N-terminal 6xHis-thioredoxin fusion; label: digoxigenin; probe letters rebuilt from the primers and the genome
row,Sequence,binding result
1,CACAATACAATATGTCGTTCCCGTCACATCGCGGTAATAAAAAAAATTAAACCACTACATATATAACTAAGTACTAGTTCCCCCAATTTCAGCACGAAGTACTTCATGGCAAAAACGTGAATAACTGCAACTCCAGTGTCAATCTCCTGCAAGCAACACACACTATACATAACCCACTCCGTACCCTCACCAAAACCTTCACACCTAACCTTTTCCGGCGACTCCACGGCGGCGATACACCGATCACTATGCTCTCCAGAGGTGTTCCGACCGCCACCGCCACCGCCTACAATGACGTA (double strand) [f1-deltaAWbox],no binding

# Source: article PMC9002759, “The Sunflower WRINKLED1 Transcription Factor Regulates Fatty Acid Biosynthesis Genes through an AW Box Binding Sequence with a Particular Base Bias”
